Assay results: patent publication US6958416B2, “Valproyltaurinamide derivatives as anticonvulsant amd CNS active agents” (Yissum Research Development Company of the Hebrew …, priority 2001, dated 2005)

Tested on: maximal electroshock seizure (MES)
Experiment: maximal electroshock seizure test (MES)
Type: in vivo, rats
Details: protective index PI=TD50/ED50, MES
From the text: The first model the maximal electroshock seizure test (MES), is used to show efficacy for antiepileptic agents against partial and generalized seizure type epilepsy, the common epilepsy among therapy resistant epileptic patients. The second model, the subcutaneous pentylenetetrazole test (s.c. Met) which measures seizure threshold and is a standard screening procedure to show efficacy for agents against […] seizures. In these studies, convulsions were inhibited or prevented after oral (p.o.) and intraperitoneal (ip) administration of the compounds.

Row | SMILES | PI (MES) ip | PI (MES) (po) (po)
1 | CCCC(CCC)C(=O)NCCS(=O)(=O)N(C)C [B, N-(2-Propylpentanoyl)taurine-N′,N′-dimethylamide] | 3.2 | 
2 | CCCC(CCC)C(=O)NCCS(=O)(=O)NC(C)C [C, N-(2-Propylpentanoyl)taurine-N′-isopropylamide] | 12.1 | 
3 | CCCC(CCC)C(=O)NCCS(N)(=O)=O [Compound A, N-(2-Propylpentanoyl)taurinamide] | >7 | 
4 | CCCC(CCC)C(=O)O [VPA, valproic acid, reference compound] |  | 0.6
